Laboratory results as given in the supplement of paper PMC10849652.
This is one part of the list.

Chains of the proteins cited; added tags and fusions are not shown. Lines headed by an entry give the natural chain unless they say otherwise; changes in a name come on top.
UniProt Q96A73: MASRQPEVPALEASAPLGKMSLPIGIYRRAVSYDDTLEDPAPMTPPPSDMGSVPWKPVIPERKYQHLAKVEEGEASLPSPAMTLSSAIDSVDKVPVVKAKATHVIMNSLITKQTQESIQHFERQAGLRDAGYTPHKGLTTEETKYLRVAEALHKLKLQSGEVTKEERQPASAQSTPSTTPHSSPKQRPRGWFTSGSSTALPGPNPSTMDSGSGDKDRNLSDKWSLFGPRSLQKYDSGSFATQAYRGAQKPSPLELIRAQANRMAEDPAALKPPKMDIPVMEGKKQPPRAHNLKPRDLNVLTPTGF
UniProt O60662: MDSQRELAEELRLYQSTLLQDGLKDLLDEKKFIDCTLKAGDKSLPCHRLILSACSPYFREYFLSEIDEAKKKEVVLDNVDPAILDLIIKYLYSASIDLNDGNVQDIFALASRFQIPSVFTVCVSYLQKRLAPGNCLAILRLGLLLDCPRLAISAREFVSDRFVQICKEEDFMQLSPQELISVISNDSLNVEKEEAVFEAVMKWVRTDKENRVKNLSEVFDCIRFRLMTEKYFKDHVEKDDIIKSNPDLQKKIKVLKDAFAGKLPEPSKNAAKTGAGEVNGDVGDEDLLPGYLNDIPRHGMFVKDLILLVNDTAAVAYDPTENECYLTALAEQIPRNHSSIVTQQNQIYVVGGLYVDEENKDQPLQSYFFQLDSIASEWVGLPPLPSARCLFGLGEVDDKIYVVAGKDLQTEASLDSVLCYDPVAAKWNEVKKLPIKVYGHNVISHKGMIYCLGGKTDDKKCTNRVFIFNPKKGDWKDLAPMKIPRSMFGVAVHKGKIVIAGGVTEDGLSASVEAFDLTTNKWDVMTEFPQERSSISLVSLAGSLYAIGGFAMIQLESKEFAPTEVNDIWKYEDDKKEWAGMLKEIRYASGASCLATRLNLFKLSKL
UniProt Q9BQD3: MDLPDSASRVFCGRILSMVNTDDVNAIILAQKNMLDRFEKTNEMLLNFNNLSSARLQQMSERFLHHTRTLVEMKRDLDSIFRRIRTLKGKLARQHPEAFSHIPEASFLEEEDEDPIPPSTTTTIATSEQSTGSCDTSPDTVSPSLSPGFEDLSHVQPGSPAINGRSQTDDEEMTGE
UniProt Q9UHA4, whole entry, looked up: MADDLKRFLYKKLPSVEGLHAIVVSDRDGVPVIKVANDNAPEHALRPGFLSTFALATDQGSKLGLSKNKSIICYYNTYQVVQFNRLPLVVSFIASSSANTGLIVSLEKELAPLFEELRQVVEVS
UniProt O94889: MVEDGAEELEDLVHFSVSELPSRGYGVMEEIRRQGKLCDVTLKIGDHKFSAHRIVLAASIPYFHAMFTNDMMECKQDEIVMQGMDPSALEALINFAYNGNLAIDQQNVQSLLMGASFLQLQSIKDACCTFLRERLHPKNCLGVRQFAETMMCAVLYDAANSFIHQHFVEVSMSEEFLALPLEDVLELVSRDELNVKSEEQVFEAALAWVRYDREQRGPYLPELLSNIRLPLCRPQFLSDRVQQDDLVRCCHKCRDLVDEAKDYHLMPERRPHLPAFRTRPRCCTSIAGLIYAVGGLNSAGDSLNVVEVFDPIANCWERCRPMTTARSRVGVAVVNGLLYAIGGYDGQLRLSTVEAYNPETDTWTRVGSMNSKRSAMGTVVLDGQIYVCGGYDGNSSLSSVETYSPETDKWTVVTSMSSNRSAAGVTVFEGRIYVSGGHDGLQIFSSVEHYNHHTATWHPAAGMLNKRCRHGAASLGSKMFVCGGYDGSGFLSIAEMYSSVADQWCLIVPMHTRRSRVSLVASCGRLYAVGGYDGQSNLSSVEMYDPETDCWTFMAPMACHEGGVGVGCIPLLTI
UniProt Q9ULH0: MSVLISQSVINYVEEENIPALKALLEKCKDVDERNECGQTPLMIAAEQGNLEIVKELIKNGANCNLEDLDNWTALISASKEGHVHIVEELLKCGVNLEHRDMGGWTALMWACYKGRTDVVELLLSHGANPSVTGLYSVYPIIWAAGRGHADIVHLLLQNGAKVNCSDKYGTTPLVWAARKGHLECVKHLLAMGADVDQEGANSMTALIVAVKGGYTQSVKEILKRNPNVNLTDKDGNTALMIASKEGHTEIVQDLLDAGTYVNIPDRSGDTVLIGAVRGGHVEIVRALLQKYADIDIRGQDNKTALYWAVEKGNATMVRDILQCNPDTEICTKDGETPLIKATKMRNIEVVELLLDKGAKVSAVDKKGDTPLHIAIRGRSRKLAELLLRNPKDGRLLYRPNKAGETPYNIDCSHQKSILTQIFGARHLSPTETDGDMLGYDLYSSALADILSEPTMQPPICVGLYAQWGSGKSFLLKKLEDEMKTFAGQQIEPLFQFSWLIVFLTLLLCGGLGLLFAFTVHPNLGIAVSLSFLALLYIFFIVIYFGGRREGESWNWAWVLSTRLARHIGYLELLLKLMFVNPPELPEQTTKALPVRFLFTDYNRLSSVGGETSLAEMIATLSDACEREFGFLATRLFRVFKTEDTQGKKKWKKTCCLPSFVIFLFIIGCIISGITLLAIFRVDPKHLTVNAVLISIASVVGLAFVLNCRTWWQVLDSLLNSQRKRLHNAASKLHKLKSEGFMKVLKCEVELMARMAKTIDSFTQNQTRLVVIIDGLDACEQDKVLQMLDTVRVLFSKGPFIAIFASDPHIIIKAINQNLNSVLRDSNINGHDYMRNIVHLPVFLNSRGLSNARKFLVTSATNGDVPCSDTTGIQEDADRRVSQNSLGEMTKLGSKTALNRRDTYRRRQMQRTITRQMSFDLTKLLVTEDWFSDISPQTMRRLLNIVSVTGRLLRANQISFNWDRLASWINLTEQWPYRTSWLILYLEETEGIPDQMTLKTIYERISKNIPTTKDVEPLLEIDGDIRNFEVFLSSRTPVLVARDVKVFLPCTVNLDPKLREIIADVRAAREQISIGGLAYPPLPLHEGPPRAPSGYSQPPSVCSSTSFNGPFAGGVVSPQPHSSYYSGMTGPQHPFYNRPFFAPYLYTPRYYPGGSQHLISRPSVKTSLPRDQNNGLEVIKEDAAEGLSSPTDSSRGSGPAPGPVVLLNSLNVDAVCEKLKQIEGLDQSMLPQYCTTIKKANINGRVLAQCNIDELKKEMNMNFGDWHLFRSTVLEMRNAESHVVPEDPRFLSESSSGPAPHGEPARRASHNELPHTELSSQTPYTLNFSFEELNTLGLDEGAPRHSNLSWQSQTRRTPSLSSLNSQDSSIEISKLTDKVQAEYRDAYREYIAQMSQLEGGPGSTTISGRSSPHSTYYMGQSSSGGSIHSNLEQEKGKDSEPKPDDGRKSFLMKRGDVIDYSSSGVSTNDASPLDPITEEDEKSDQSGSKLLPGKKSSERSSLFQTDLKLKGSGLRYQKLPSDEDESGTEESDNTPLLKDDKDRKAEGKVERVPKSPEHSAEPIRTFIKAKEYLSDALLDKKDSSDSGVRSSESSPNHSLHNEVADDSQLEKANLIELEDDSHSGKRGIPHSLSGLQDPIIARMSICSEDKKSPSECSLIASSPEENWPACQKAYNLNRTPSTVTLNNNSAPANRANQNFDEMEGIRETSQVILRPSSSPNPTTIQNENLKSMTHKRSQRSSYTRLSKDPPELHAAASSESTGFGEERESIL
UniProt P55268: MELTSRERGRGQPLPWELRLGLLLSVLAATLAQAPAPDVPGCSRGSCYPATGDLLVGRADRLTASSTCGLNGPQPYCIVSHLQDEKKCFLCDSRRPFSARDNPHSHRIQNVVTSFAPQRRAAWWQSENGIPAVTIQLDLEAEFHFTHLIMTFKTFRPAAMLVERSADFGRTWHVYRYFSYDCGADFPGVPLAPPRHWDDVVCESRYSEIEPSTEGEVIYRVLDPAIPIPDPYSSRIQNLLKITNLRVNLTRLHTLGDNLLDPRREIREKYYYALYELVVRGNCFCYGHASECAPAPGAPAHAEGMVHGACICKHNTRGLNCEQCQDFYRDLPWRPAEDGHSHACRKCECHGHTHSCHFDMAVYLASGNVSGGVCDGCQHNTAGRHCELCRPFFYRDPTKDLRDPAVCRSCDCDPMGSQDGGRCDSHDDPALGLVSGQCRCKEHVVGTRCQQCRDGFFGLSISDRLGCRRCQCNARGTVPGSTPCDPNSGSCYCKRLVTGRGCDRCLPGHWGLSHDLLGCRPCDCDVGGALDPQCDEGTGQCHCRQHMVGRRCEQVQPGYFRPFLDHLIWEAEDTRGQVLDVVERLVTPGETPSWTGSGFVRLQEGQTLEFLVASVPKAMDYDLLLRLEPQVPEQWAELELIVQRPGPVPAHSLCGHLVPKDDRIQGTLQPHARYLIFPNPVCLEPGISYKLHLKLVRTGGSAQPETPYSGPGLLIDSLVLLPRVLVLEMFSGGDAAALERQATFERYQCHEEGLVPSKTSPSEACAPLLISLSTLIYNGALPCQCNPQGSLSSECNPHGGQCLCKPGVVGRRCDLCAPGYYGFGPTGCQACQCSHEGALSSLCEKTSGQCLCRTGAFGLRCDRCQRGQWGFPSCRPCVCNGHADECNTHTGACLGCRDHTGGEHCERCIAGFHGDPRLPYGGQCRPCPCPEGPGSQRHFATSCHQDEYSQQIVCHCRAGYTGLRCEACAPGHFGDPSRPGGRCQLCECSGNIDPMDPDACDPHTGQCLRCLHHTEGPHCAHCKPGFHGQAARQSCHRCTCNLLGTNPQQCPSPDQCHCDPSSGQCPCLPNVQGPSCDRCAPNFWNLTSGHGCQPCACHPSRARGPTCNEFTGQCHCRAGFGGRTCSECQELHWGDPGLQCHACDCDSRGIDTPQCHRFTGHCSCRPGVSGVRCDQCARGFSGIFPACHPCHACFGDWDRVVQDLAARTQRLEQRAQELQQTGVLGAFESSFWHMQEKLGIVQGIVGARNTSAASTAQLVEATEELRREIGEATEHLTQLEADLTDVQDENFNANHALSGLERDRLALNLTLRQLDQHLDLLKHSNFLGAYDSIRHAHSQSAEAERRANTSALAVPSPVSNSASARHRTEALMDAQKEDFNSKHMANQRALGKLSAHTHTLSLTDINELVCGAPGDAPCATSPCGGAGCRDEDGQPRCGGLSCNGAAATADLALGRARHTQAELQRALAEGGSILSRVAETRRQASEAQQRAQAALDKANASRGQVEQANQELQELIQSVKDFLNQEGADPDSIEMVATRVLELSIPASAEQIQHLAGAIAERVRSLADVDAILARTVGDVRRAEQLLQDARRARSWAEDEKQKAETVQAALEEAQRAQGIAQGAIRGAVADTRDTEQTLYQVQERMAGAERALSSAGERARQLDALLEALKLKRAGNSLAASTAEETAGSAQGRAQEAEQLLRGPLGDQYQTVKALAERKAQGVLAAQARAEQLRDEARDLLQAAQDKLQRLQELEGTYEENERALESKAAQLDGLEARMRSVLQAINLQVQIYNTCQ
UniProt Q8NA19: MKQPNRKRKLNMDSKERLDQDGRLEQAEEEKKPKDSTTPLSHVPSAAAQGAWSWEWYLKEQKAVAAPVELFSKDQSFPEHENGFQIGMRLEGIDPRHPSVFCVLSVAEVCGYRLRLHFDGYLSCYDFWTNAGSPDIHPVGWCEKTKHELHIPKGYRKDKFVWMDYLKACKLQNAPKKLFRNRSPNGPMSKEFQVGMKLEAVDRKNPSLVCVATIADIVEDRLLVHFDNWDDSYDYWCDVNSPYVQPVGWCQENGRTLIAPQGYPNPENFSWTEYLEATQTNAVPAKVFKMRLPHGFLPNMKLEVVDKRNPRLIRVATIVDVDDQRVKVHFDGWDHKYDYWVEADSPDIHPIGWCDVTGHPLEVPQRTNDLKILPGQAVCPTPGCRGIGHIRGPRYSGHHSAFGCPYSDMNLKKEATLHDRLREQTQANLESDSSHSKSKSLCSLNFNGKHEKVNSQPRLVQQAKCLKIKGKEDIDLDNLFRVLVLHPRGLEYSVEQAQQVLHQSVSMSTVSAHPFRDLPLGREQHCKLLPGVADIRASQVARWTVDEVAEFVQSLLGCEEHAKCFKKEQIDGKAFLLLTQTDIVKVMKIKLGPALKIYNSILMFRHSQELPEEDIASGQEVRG
UniProt Q53HC5: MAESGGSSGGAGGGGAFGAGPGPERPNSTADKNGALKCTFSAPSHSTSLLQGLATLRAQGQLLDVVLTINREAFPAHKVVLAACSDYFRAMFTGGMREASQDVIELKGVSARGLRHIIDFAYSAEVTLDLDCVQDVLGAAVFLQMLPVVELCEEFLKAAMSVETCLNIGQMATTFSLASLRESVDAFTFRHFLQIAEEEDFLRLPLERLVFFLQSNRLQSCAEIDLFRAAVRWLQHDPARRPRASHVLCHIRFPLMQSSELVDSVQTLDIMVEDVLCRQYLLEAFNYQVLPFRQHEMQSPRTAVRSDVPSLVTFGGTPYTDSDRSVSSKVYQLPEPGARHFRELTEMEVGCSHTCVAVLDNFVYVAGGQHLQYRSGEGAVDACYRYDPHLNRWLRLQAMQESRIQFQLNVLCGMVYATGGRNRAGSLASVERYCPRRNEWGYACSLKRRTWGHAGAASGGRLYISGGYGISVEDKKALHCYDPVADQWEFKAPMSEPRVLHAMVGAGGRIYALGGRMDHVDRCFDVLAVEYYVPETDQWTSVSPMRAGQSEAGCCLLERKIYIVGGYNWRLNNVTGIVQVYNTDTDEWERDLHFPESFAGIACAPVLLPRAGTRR

Tests used:
Assay in all cases: log2 fold change, soluble protein after heating vs DMSO (PISA); higher = thermal stabilisation; K562 lysate, 10 uM; active = over 0.2 and 3.5 SD of the protein, either way, in both replicates (recomputed)
[1] = compound: C1=CC=C(C=C1)[C@H](COC2=CC3=C(C=C2)NC(=O)N3)NC(=O)C4=CC=CN(C4=O)CC5=CC(=C(C=C5)F)F
Summary of the method: (§1)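 K562 pellets were dounce-homogenised in PBS pH 7.4 with 1 mM MgCl2, and the crude extract at 1 mg/mL protein was treated with 10 μM compound for 30 min. Aliquots were heated for 3 min across 48°C-58°C, pooled, and brought to 0.5% NP-40 at 4°C; soluble protein was the supernatant after 21,000xg for 90 min. Soluble protein was quantified by TMTpro 16plex LC-MS/MS with channel sums equalised, and reported as log2 fold change in thermal stability against DMSO controls, with values from duplicates.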

[2] = compound: CC1=C(SC2=C1C(=N[C@H](C3=NN=C(N32)C)CC(=O)N)C4=CC=C(C=C4)Cl)C
Summary of the method: as §1

[3] = compound: CC1=C2C(=CC=C1)N=C(N(C2=O)C3=CC=CC=C3C)CN4C=NC5=C(N=CN=C54)N
Summary of the method: as §1

[4] = compound: Cc1sc2c(c1C)C(c1ccc(Cl)cc1)=N[C@@H](CC(=O)OC(C)(C)C)c1nnc(C)n1-2
Summary of the method: as §1

[5] = compound: c1ccc([C@@H]2C[C@H]2NC2CCNCC2)cc1
Summary of the method: as §1

Row | Target | log2 fold change [1] | log2 fold change [2] | log2 fold change [3] | log2 fold change [4] | log2 fold change [5]
1 | KNTC1 (UniProt P50748) | inactive: -0.01 | inactive: 0.024 | inactive: 0.062 | inactive: -0.002 | inactive: -0.003
2 | KIAA1191 (UniProt Q96A73) | inactive: 0.026 | inactive: -0.03 | inactive: -0.05 | inactive: 0.017 | inactive: -0.044
3 | KLHL41 (UniProt O60662) | inactive: -0.039 | inactive: 0.062 | inactive: 0.17 | inactive: -0.205 | inactive: -0.216
4 | KDM4A (UniProt O75164) | inactive: 0.043 | inactive: -0.05 | inactive: 0.093 | inactive: -0.027 | inactive: -0.074
5 | KXD1 (UniProt Q9BQD3) | inactive: 0.066 | inactive: -0.116 | inactive: 0.081 | inactive: 0.034 | inactive: -0.003
6 | KPNA3 (UniProt O00505) | inactive: -0.058 | inactive: 0.115 | inactive: 0.02 | inactive: -0.005 | inactive: 0.049
7 | KDM5B isoform 2 (UniProt Q9UGL1) | inactive: -0.07 | inactive: 0.117 | inactive: 0.018 | inactive: 0.07 | inactive: -0.229
8 | KPNA6 (UniProt O60684) | inactive: -0.014 | inactive: -0.043 | inactive: 0.1 | inactive: 0.004 | inactive: 0.019
9 | KIF14 (UniProt Q15058) | inactive: 0.028 | inactive: -0.148 | inactive: 0.059 | inactive: -0.012 | inactive: 0.039
10 | KMT2C isoform 3 (UniProt Q8NEZ4) | inactive: 0.071 | inactive: 0.13 | inactive: -0.024 | inactive: -0.031 | inactive: 0.018
11 | KPNA4 (UniProt O00629) | inactive: 0.06 | inactive: -0.068 | inactive: 0.044 | inactive: 0.011 | inactive: -0.169
12 | L1RE1 (UniProt Q9UN81) | inactive: 0.03 | inactive: -0.05 | inactive: -0.053 | inactive: -0.005 | inactive: -0.024
13 | KLC2 (UniProt Q9H0B6) | inactive: -0.032 | inactive: 0.016 | inactive: 0.029 | inactive: 0.003 | inactive: 0.122
14 | KDM6A (UniProt O15550) | inactive: -0.024 | inactive: -0.019 | inactive: 0.049 | inactive: -0.03 | inactive: 0.008
15 | KIF26A (UniProt Q9ULI4) | inactive: 0.044 | inactive: -0.011 | inactive: 0.053 | inactive: 0.09 | inactive: -0.018
16 | LAMTOR3 (UniProt Q9UHA4) | inactive: -0.028 | inactive: -0.002 | inactive: 0.001 | inactive: -0.036 | inactive: -0.124
17 | KIF13B (UniProt Q9NQT8) | inactive: -0.017 | inactive: 0.023 | inactive: 0.044 | inactive: 0.082 | inactive: -0.039
18 | KIF1C (UniProt O43896) | inactive: -0.051 | inactive: 0.125 | inactive: 0.282 | – | inactive: 0.005
19 | KIF21B (UniProt O75037) | inactive: -0.098 | inactive: 0.143 | inactive: -0.062 | inactive: -0.075 | inactive: 0.081
20 | KLC4 isoform 3 (UniProt Q9NSK0) | inactive: 0.011 | inactive: 0.004 | inactive: -0.003 | inactive: 0.01 | inactive: 0.014

Row | Target | log2 fold change [1] | log2 fold change [2] | log2 fold change [3] | log2 fold change [4] | log2 fold change [5]
21 | KDM8 isoform 3 (UniProt Q8N371) | inactive: -0.022 | inactive: 0.052 | inactive: -0.03 | inactive: 0.005 | inactive: -0.048
22 | LAMA2 (UniProt P24043) | inactive: 0.217 | inactive: -0.035 | inactive: -0.021 | – | inactive: -0.341
23 | KLHL18 (UniProt O94889) | inactive: 0.019 | inactive: -0.016 | inactive: 0.051 | inactive: -0.023 | inactive: -0.034
24 | KIF5A (UniProt Q12840) | inactive: -0.001 | inactive: 0.01 | inactive: 0.014 | inactive: -0.041 | inactive: 0.028
25 | LAMB1 (UniProt P07942) | inactive: 0.012 | inactive: -0.051 | inactive: -0.029 | inactive: -0.041 | inactive: 0.013
26 | KIAA1522 isoform 2 (UniProt Q9P206) | inactive: 0.021 | inactive: -0.036 | inactive: 0.018 | inactive: -0.016 | inactive: -0.031
27 | KNSTRN (UniProt Q9Y448) | inactive: 0.097 | inactive: -0.057 | inactive: 0 | inactive: 0.002 | inactive: 0.034
28 | KIDINS220 isoform 4 (UniProt Q9ULH0) | inactive: 0 | inactive: 0.032 | inactive: 0.077 | inactive: -0.018 | inactive: 0.034
29 | KTN1 (UniProt Q86UP2) | inactive: -0.007 | inactive: -0.002 | inactive: 0.012 | inactive: -0.019 | inactive: 0
30 | LARP1 (UniProt Q6PKG0) | inactive: -0.002 | inactive: 0.008 | inactive: 0.003 | inactive: 0.028 | inactive: 0.068
31 | KIF3B (UniProt O15066) | inactive: 0.055 | inactive: 0.026 | inactive: -0.025 | – | inactive: -0.123
32 | KEL (UniProt P23276) | inactive: 0.032 | inactive: -0.058 | inactive: 0.013 | inactive: -0.061 | inactive: 0.054
33 | L2HGDH (UniProt Q9H9P8) | inactive: -0.019 | inactive: 0.01 | inactive: 0.004 | inactive: 0.013 | inactive: -0.021
34 | LARP7 isoform 3 (UniProt Q4G0J3) | inactive: 0.02 | inactive: -0.003 | inactive: 0.006 | inactive: 0.002 | inactive: 0
35 | KHSRP (UniProt Q92945) | inactive: 0.01 | inactive: -0.011 | inactive: -0.007 | inactive: 0.026 | inactive: -0.035
36 | KIFC3 isoform 6 (UniProt Q9BVG8) | inactive: 0.023 | inactive: 0.016 | inactive: -0.178 | inactive: -0.21 | active: -1.16
37 | LAMB2 (UniProt P55268) | – | – | – | inactive: -0.002 | –
38 | L3MBTL4 (UniProt Q8NA19) | inactive: -0.057 | inactive: 0.044 | inactive: 0.014 | – | inactive: -0.102
39 | LARGE2 (UniProt Q8N3Y3) | – | – | – | – | inactive: 0.031
40 | KLHL26 (UniProt Q53HC5) | – | – | – | inactive: -0.108 | inactive: -0.069

Some entries already given, showing only log2 fold change [1], log2 fold change [3] and log2 fold change [2]:

| Row | Target | log2 fold change [1] | log2 fold change [3] | log2 fold change [2] |
| --- | --- | --- | --- | --- |
| 26 | KIAA1522 isoform 2 (UniProt Q9P206) | inactive: 0.021 | inactive: 0.018 | inactive: -0.036 |
| 27 | KNSTRN (UniProt Q9Y448) | inactive: 0.097 | inactive: 0 | inactive: -0.057 |
